Here are results for one substance from paper PMC3864799.

The chains behind the UniProt entries cited, without tags or fusion partners.
UniProt P18067: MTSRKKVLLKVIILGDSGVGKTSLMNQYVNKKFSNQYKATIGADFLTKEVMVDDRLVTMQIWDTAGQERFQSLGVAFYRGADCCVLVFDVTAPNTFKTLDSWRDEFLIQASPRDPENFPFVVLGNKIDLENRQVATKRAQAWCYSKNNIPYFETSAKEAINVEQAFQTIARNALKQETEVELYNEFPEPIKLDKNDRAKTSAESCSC

This experiment addresses T1, Rab escort protein 1 (rat REP1) (rat) (UniProt P37727).
T1 sequence: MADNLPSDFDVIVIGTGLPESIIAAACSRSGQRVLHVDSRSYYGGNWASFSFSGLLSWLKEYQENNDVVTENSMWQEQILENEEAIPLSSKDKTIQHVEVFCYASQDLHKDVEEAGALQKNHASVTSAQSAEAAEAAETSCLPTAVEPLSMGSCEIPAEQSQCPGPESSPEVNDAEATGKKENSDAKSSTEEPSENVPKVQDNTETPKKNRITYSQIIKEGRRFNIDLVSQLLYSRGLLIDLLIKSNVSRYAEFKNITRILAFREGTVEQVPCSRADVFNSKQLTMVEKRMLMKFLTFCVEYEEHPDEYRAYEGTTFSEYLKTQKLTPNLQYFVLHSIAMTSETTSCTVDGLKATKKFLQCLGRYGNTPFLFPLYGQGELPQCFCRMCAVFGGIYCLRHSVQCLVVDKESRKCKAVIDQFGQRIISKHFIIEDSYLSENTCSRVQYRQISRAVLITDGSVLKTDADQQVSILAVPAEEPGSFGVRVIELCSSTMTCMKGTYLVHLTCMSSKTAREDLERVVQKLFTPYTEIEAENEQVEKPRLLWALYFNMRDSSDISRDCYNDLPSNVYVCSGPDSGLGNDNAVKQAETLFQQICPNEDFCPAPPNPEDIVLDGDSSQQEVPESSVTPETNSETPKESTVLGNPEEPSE
The experiment can be described thus: co-purification of a complex reconstituted by in vitro prenylation; Citrine-Rab prenylated in vitro and purified as a complex with REP1 as described previously (ref. 36); prenylation checked by MALDI mass spectrometry; both purified.

No constants are given. Whether binding was seen depends on the method and setting. Some binding calls cover weakened binding; strength is not graded here.

For the substance “prenylated Citrine-Rab7a (from UniProt P18067 1-207)”, the binding result is recorded as “binds”.
